Measurements reported in PubChem BioAssay AID652259 (Drosophila RNAi Screening Center, 2013)

Test: 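Knock-downs that push a Wingless-driven reporter up or down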 (primary screen)
Cells: Drosophila clone 8 imaginal disc epithelial cells
Reagent: long dsRNA against Drosophila genes
Conditions: pathway stimulated by co-transfected Wingless expression plasmid
Measured: 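Firefly luciferase from a tcf-site Wingless reporter, measured alongside co-transfected Renilla luciferase that tracks transfection; pathway stimulated by a Wingless plasmid; the firefly-to-Renilla ratio is not deposited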
Reading the numbers: firefly reporter light: higher = more Wg reporter light, before normalisation; Renilla control light: higher = more transfected or surviving cells
Call rule: 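a knock-down is a candidate when at least two out of four statistical tests show it departing from its plate mean; one test alone signals a weak candidate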
Meaning of the calls: active = candidate regulator (raises or lowers reporter); inactive = not a candidate
The deposit covers about 22,000 reagents; shown is an unselected part of those with a known target gene and a result. In the full data, 233 (1.1%) are marked active. 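Light values are raw, unnormalised plate reads; the ratio scores behind the reporter calls were not deposited.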 Entries without a mark were called inactive. Not given: the amount of reagent, the time to read-out, the dose of the treatment.

target | dsRNA | reporter change call, replicate 1 | firefly reporter light, replicate 1 | firefly reporter light, replicate 2 | Renilla control light, replicate 1 | Renilla control light, replicate 2
p-cup | DRSC19513 | Wg reporter activity lowered (active) | 6322 | – | 8182 | –
Idh3g | DRSC15699 | – | 17872 | – | 14531 | –
CG30411 | DRSC04004 | – | 13245 | – | 7200 | –
CG32276 | DRSC08027 | – | 2848 | – | 1488 | –
CG31872 | DRSC02568 | – | 2496 | 7170 | 976 | 2277
CG31872 | DRSC02572 | – | 4976 | 9336 | 1527 | 3244
CG6425 | DRSC16038 | – | 1873 | 7587 | 1041 | 2298
CG13506 | DRSC04150 | – | 2068 | 6269 | 288 | 2839
ine | DRSC00822 | – | 8964 | – | 2992 | –
byn | DRSC11332 | – | 8025 | – | 4368 | –
CG33271 | DRSC10583 | – | 6568 | – | 2006 | –
TkR86C | DRSC16880 | – | 18090 | – | 4474 | –
Sodh2 | DRSC16865 | – | 22932 | – | 6717 | –
CG15483 | DRSC02493 | – | 1784 | 6315 | 1141 | 3574
Brd8 | DRSC14866 | – | 2887 | 7156 | 636 | 2608
Nup50 | DRSC06827 | – | 6634 | – | 1446 | –
Mrm2 | DRSC14310 | – | 13569 | – | 3667 | –

Limited to “Renilla control light, replicate 1” (4 entries from above):
CG6425 [DRSC16038] = 1041
CG13506 [DRSC04150] = 288
ine [DRSC00822] = 2992
byn [DRSC11332] = 4368

Further reagents:
target | dsRNA | reporter change call, replicate 1 | firefly reporter light, replicate 1 | firefly reporter light, replicate 2 | Renilla control light, replicate 1 | Renilla control light, replicate 2
Smvt | DRSC15426 | – | 26736 | – | 13600 | –
Acp98AB | DRSC21837 | – | 3.73e5 | 4.50e5 | 2.15e5 | 2.56e5
Ube4B | DRSC03277 | – | 7712 | – | 2176 | –
GluProRS | DRSC14095 | – | 4203 | 6376 | 1056 | 1856
CG4611 | DRSC10434 | – | 1412 | 11259 | 1209 | 4368
Jheh3 | DRSC06533 | – | 8713 | – | 3834 | –
dpr2 | DRSC02370 | – | 2843 | 9474 | 1160 | 4133
dpr2 | DRSC02371 | – | 2026 | 7367 | 970 | 4102
CG4768 | DRSC19917 | – | 3699 | 9016 | 1363 | 2752
CG14367 | DRSC14829 | – | 14508 | – | 3392 | –
ocm | DRSC04360 | – | 5304 | – | 1632 | –
CG5181 | DRSC02825 | – | 13970 | – | 5020 | –
